From patent EP2392597B1
These are yes or no findings as the source states them, for the method shown. Some entries that bind do so weakly or less than the wild type.

By UniProt entry, the sequences of proteins in these tests, tags left out. Where a name states a change or a piece, a line headed by the entry shows the natural chain unless it says otherwise.
UniProt Q9NPF7: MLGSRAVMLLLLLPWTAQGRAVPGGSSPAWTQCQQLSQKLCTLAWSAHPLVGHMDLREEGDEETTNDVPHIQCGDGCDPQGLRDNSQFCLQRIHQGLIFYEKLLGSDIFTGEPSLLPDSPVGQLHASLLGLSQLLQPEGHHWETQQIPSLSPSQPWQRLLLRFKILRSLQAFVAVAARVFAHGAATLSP

Target: human p19 subunit of IL-23 (human) (UniProt Q9NPF7)
Assay: phage display screening

| binding | Binder |
| --- | --- |
| binds | anti-IL-23p19 Fab/scFv cluster 267 (Fab, V domains shown) VH: EVQLLESGGGLVQPGGSLRLSCAASGFTFSEYAMEWVRQAPGKGLEWVSYIYSSGGFTIYADSVKGRFTISRDNSKNTLYLQMNSLRAEDTAVYYCARDGSDAFDIWGQGTMVTVSS VL: DIQMTQSPSSVSASVGDRVTITCRASQDINIWLAWYQLKPGEAPKLLIHSASTLQSGVPSRFSGSGSGTDFIFTISSLQPEDYATYHCQQINTFPPTFGGGTKVDIK |
| binds | anti-IL-23p19 Fab/scFv cluster 273 (Fab, V domains shown) VH: EVQLLESGGGLVQPGGSLRLSCAASGFTFSRYVMGWVRQAPGKGLEWVSYISPSGGWTWYADFVKGRFTISRDNSKNTLYLQMNSLRAEDTAVYYCARVHDAFDIWGQGTMVTVSS VL: NIQMTQSPSSVSASVGDRVTITCRASQGVSTWLAWYQQKPGKAPKLLIYAASSLQSGVPSRFSGSGSGTDFTLTISSLQPEDFATYYCLQAYNFPLTFGGGTKVEIE |
| binds | anti-IL-23p19 Fab/scFv cluster 276 (Fab, V domains shown) VH: EVQLLESGGGLVQPGGSLRLSCAASGFTFSRYVMGWVRQAPGKGLEWVSYISPSGGWTWYADFVKGRFTISRDNSKNTLYLQMNSLRAEDTAVYYCARVHDAFDIWGQGTMVTVSS VL: NIQMTQSPSSVSASVGDRVTITCRASQGVSTWLAWYQQKPGKAPKLLIYAASSLQSGVPSRFSGSGSGTDFTLTISSLQPEDFATYYCLQAYNFPLTFGGGTKVEIK |
| binds | anti-IL-23p19 Fab/scFv cluster 277 (Fab, V domains shown) VH: EVQLLESGGGLVQPGGSLRLSCAASGFTFSHYVMGWVRQAPGKGLEWVSYISPSGGWTWYADFVKGRFTISRDNSKNTLYLQMNSLRAEDTAVYYCARVHDAFDIWGQGTMVTVSR VL: NIQMTQSPSSVSASVGDRVTITCRASQGVSTWLAWYQQKPGKAPKLLIYAASSLQSGVPSRFSGSGSGTDFTLTISSLQPEDFATYYCLQAYNFPLTFGGGTKVEIK |
| binds | anti-IL-23p19 Fab/scFv cluster 279 (Fab, V domains shown) VH: EVQLLESGGGLVQPGGSLRLSCAASGFTFSAYGMDWVRQAPGKGLEWVSSISPSGGQTKYADSVKGRFTISRDNSKNTLYLQMNSLRAEDTAVYYCAKDLGGGYYYYYGMDVWGQGTLVTVSS VL: QYELTQPASVSGSPGQSITISCTGTSSDVGGYNYVSWYQQHPGKAPKLMIYEVSNRPSGVSNRFSGSKSGNTASLTISGLQAEDEADYYCSSYTSSSTLFYVFGTGTKVTVR |
| binds | anti-IL-23p19 Fab/scFv cluster 284 (Fab, V domains shown) VH: EVQLLESGGGLVQPGGSLRLSCAASGFTFSAYGMDWVRQAPGRGLEWVSSISPSGGQTKYADSVKGRFTISRDNSKNTLYLQMNSLRAEDTAVYYCAKDLGGGYYYYYGMDVWGQGTLVTVSS VL: QYELTQPASVSGSPGQSITISCTGTSSDVGGYNYVSWYQQHPGKAPKLMIYEVSNRPSGVSNRFSGSKSGNTASLTISGLQAEDEADYYCSSYTSSSTLFYVFGTGTKVTVL |
| binds | anti-IL-23p19 Fab/scFv cluster 305 (VH SEQ ID NO: 267) (Fab, V domains shown) VH: EVQLLESGGGLVQPGGSLRLSCAASGFTFSAYGMDWVRQAPGKGLEWVSSISPSGGRTKYADSVKGRFTISRDNSKNTLYLQMNSLRAEDTAVYYCAKDLGGGYYYYYGMDVWGQGTLVTVSS VL: QYELTQPASVSGSPGQSITISCTGTSSDVGGYNYVSWYQQHPGKAPKLMIYEVSNRPSGVSNRFSGSKSGNTASLTISGLQAEDEADYYCSSYTSSSTLFYVFGTGTKVTVL |
| binds | anti-IL-23p19 Fab/scFv cluster 288 (Fab, V domains shown) VH: EVQLLESGGGLVQPGGSLRLSCAASGFTFSAYGMDWVRQAPGKGLEWVSSISPSGGQTKYADSVKGRFTISRDNSKNTLYLQMKSLRAEDTAVYYCAKDLGGGYYYYYGMDVWGQGTLVTVSS VL: QYELTQPASVSGSPGQSITISCTGTSSDVGGYNYVSWYQQHPGKAPKLMIYEVSNRPSGVSNRFSGSKSGNTASLTISGLQAEDEADYYCSSYTSSSTLFYVFGTGTKVTVL |
| binds | anti-IL-23p19 Fab/scFv cluster 283 (Fab, V domains shown) VH: EVQLLESGGGLVQPGGSLRLSCAASGFTFSAYGMDWVRQAPGKGLEWVSSISPSGGQTKYADSVKGRFTISRDNSKNTLYLQMNSLRAEDTAVYYCAKDLGGGYYYYYGMDVWGQGTLVTVSS VL: QYELTQPAPVSGSPGQSITISCTGTSSDVGGYNYVSWYQQHPGKAPKLMIYEVSNRPSGVSNRFSGSKSGNTASLTISGLQAEDEADYYCSSYTSSSTLFYVFGTGTKVTVL |
| binds | anti-IL-23p19 Fab/scFv cluster 304 (Fab, V domains shown) VH: EVQLLESGGGLVQPGGSLRLSCAASGFTFSAYGMDWVRQAPGKGLEWVSSISPSGGQTKYADSVKGRFTISRDNSKNTLYLQMNSLRAEDTAVYYCAKDLGGGYYYYYGMDVWGQGTTVTVSS VL: QYELTQPASVSGSPGQSITISCTGTSSDVGGYNYVSWYQQHPGKAPKLMIYEVSNRPSGVSNRFSGSKSGNTASLTISGLQAEDEADYYCSSYTSSSTLFYVFGTGTKVTVP |

Second part, the binder before the results:

| Binder | binding |
| --- | --- |
| anti-IL-23p19 Fab/scFv cluster 26 (Fab, V domains shown) VH: EVQLLESGGGLVQPGGSLRLSCAASGFTFSRYGMHWVRQAPGKGLEWVSYIVSSGGYTEYADSVKGRFTISRDNSKNTLYLQMNSLRAEDTAVYYCTTGIAVARYWGQGTLVTVSS VL: DIQMTQSPGTLSLSPGERATLSCRASQSVSSRYLAWYQQKPGQAPRLLIYGASSRATGIPDRFSGSGSGTDFTLTISRLEAEDFAVYYCQQYSTSPYTFGQGTKLEIK | binds |
| anti-IL-23p19 Fab/scFv cluster 27 (Fab, V domains shown) VH: EVQLLESGGGLVQPGGSLRLSCAASGFTFSAYSMTWVRQAPGKGLEWVSGIYSSGGFTWYADSVKGRFTISRDNSKNTLYLQMNSLRAEDTAVYYCARVGLWAFDIWGQGTMVTVSS VL: DIQMTQSPSSLSASVGDRVTITCRASQSISGYLHWYQQKPGKAPNLLIFATSNLHSGVPSRFSGSRSGTDFTLTISSLQPEDFATYFCQQSFSTPPTFGHGTRLEIK | binds |
| anti-IL-23p19 Fab/scFv cluster 28 (Fab, V domains shown) VH: EVQLLESGGGLVQPGGSLRLSCAASGFTFSLYKMGWVRQAPGKGLEWVSYIWSSGGWTRYADSVKGRFTISRDNSKNTLYLQMNSLRAEDTAVYYCARAGGYNSPLSYWGQGTLVTVSS VL: DIQMTQSPSSLPASVGDRVAITCRASQSISSSYLNWYQHKPGKAPKLLIYAASNLNSGVPSRFSGSGSGTDFTLTISSLQPDDFATYYCQESHSASLTFGGGTKVEVK | binds |
| anti-IL-23p19 Fab/scFv cluster 266 (Fab, V domains shown) VH: EVQLLESGGGLVQPGGSLRLSCAASGFTFSVYTMYWVRQAPGKGLEWVSWISPSGGSTVYADSVKGRFTISRDNSKNTLYLQMNSLRAEDTAVYYCAASRTTPGGFDVWGQGTMVTVSS VL: DIQMTQSPVTLSLSPGERATLSCRASQSYISYLAWYQQKSGQAPRLLIYDTSNRATGIPARFSGSGSGSDFTLTINSLEPEDVAVYYCQQRSNWPPEFTFGQGTRLEIK | binds |
| anti-IL-23p19 Fab/scFv cluster 43 (Fab, V domains shown) VH: EVQLLESGGGLVQPGGSLRLSCAASGFTFSWYGMVWVRQAPGKGLEWVSSISPSGGSTDYADSVKGRFTISRDNSKNTLYLQMNSLRAEDTAVYYCARVGSSWYLDVWGQGTTVTVSS VL: DIQMTQSPLSLPVTPGEPASISCRSSQSLLHSNGYNYLDWFLQKPGQSPQLLIYLGSHRASGVPDRFSGSGSGTDFTLKISRVEAEDVGVYYCMQALQSRYTFGQGTKLEIK | binds |
| anti-IL-23p19 Fab/scFv cluster 33 (Fab, V domains shown) VH: EVQLLESGGGLVQPGGSLRLSCAASGFTFSTYWMEWVRQAPGKGLEWVSSIVSSGGPTMYADSVKGRFTISRDNSKNTFYLQMNSLRAEDTAVYYCARAREISIFGVVKDLDIWGQGTMVTVSS VL: DIQMTQSPGTLSVSPGERATLSCRASQSVSNKLAWYQQKPGQAPRLLIYGASTRATGIPARFSGSGSGTEFTLTITSLQSEDFAVYYCQQRINWPLTFGGGTKVEIK | binds |
| anti-IL-23p19 Fab/scFv cluster 265 (Fab, V domains shown) VH: EVQLLESGGGLVQPGGSLRLSCAASGFTFSAYKMSWVRQAPGKGLEWVSSISPSGGGTHYADSVKGRFTISRDNSKNTLYLQMNSLRAEDTALYYCAKDMGGIAARQAGGFGYWGQGTLVTVSS VL: DIQMTQSPATLSLSPGERATLSCRASQSIGRYLAWYQQKPGQAPRLLIYDASNRATGIPARFSGSGSGTDFTLTISSLEPEDFAVYYCQQRSKWPPTFGQGTKVEIK | binds |
| anti-IL-23p19 Fab/scFv cluster 36 (Fab, V domains shown) VH: EVQLLESGGGLVQPGGSLRLSCAASGFTFSHYVMGWVRQAPGKGLEWVSYISPSGGWTWYADFVKGRFTISRDNSKNTLYLQMNSLRAEDTAVYYCARVHDAFDIWGQGTMVTVSS VL: DIQMTQSPSSVSASVGDRVTITCRASQGVSTWLAWYQQKPGKAPKLLIYAASSLQSGVPSRFSGSGSGTDFTLTISSLQPEDFATYYCLQAYNFPLTFGGGTEVEIK | binds |
| anti-IL-23p19 Fab/scFv cluster 264 (Fab, V domains shown) VH: EVQLLESGGGLVQPGGSLRLSCAASGFTFSDYKMMWVRQAPGKGLEWVSSIGSSGGPTWYADSVKGRFTISRDNSKNTLYLQMNSLRAEDTAVYYCARLAYSSGWYDDYWGQGTLVTVSS VL: DIQMTQSPATLSLSPGERATLSCRASQSISSYLAWYQQKPGQAPRLLIYHASNRATGIPARFSGSGSGTDFTLTITSLEPEDFAVYYCQQRSNSPPWTFGQGTKVEMK | binds |
| anti-IL-23p19 Fab/scFv cluster 114 (Fab, V domains shown) VH: EVQLLESGGGLVQPGGSLRLSCAASGFTFSWYVMMWVRQAPGKGLEWVSGISSSGGGTQYADSVKGRFTISRDNSKNTLYLQMNSLRAEDTAVYYCARGGYYYDVPYYWGQGTLVTVSS VL: DIQMTQSPSSLSASVGDRVTITCRASQNINFYLSWFQQKPGKAPKLLIHSVNNLLGPVPSRFSGSGSGTDFTLTIVSLQPEDFATYYCQQGYRPPYTFGQGTKLEIK | binds |
| anti-IL-23p19 Fab/scFv cluster 101 (Fab, V domains shown) V domain 1: QSELTQPRSVSGSPGQSVTISCTGTSSDVGGYNYVSWYRQDPGKAPKLIIYEVSKRPSGVSNRFSGSKSGNTASLTISGLHIEDEGLYYCSSFRYSRSLDYVFGTGTQVTVL V domain 2: EVQLLESGGGLVQPGGSLRLSCAASGFTFSDYLMTWVRQAPGKGLEWVSGIWPSGGFTFYADSVKGRFTISRDNSKNTLYLQMNSLRAEDTAVYYCARAKGGDYGDPSPFDYWGQGTLVTVSS | binds |
| anti-IL-23p19 Fab/scFv cluster 29 (Fab, V domains shown) VH: EVQLLESGGGLVQPGGSLRLSCAASGFTFSAYGMDWVRQAPGKGLEWVSSISPSGGQTKYADSVKGRFTISRDNSKNTLYLQMNSLRAEDTAVYYCAKDLGGGYYYYYGMDVWGQGTLVTVSS VL: QYELTQPASVSGSPGQSITISCTGTSSDVGGYNYVSWYQQHPGKAPKLMIYEVSNRPSGVSNRFSGSKSGNTASLTISGLQAEDEADYYCSSYTSSSTLFYVFGTGTKVTVL | binds |
